Data published in PubChem BioAssay AID180 (DTP/NCI, 2004).
The list is a part of this screen's results and no random one: it is rich in T/C values a quarter to a half above the control, in often repeated tests (any T/C) and in doses without a T/C. Further doses and runs are listed elsewhere. T/C is the treated group as % of the vehicle group. Schedule codes are those of the source, taken here to give the interval after Q, in days (D) or hours (H), and the number of doses after X. Some T/C values are followed by the survivors on the day toxicity was checked, most often the fifth; where none is given, no animal had died by that day. Some doses were run more than once; their values stand side by side, smallest first. Some entries give survivors of the animals treated and no T/C: the source files T/C as zero there, which appears to mark a toxic dose or a test without result, not a measured value. Survivors were counted at the toxicity check, usually on the fifth day, unless a day is given; later deaths do not show. Some schedules carry Z or #; the key to these is not given.

System: BDF1 mice, Adenocarcinoma 755 s.c., tumor weight T/C
Test: NCI In Vivo Anticancer Drug Screen. Data for tumor model Adenocarcinoma 755 (subcutaneous) in B6D2F1 (BDF1) mice
Settings: T/C endpoint: mean tumor weight, higher T/C = larger tumour; for T/C: evaluated on day 12
Summary of the method: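 Transplantable tumor implanted; mice dosed with compound or vehicle; survival or tumor size recorded; ratio of treated to vehicle control reported.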

[1] = dose: 100.0 mg/kg/injection, schedule: Q01DX011 (ip), vehicle: other
[2] = dose: 100.0 mg/kg/injection, schedule: Q01DX011 (ip), vehicle: carboxymethylcellulose (CMC)
[3] = dose: 200.0 mg/kg/injection, schedule: Q01DX011 (ip), vehicle: carboxymethylcellulose (CMC)
[4] = dose: 400.0 mg/kg/injection, schedule: Q01DX011 (ip), vehicle: carboxymethylcellulose (CMC)
[5] = dose: 150.0 mg/kg/injection, schedule: Q01DX011 (ip), vehicle: carboxymethylcellulose (CMC)
[6] = dose: 12.0 mg/kg/injection, schedule: Q01DX011 (ip), vehicle: methylcellulose (MC)
[7] = dose: 18.0 mg/kg/injection, schedule: Q01DX011 (ip), vehicle: methylcellulose (MC)
[8] = dose: 120.0 mg/kg/injection, schedule: Q01DX011 (ip), vehicle: carboxymethylcellulose (CMC)

In the case of `CSc1ncc(Br)c(Sc2nc(N)nc3nc[nH]c23)n1`, the survivor count (dose: 22.5 mg/kg/injection, schedule: Q01DX011 (ip), vehicle: carboxymethylcellulose (CMC)) was 1 of 10.
For `ClCCN(CCCl)c1ccc(/C=C\c2ccnc3ccccc23)cc1`, the survivor count (dose: 230.0 mg/kg/injection, schedule: Q01DX011 (ip), vehicle: carboxymethylcellulose (CMC)) was 0 of 10.
In the case of `CCOC(=O)CN=NNc1nc[nH]c1C(N)=O`, the survivor count (dose: 175.0 mg/kg/injection, schedule: Q01DX011 (ip), vehicle: carboxymethylcellulose (CMC)) was 5 of 10 and the survivor count (dose: 350.0 mg/kg/injection, schedule: Q01DX011 (ip), vehicle: carboxymethylcellulose (CMC)) was 3 of 10.
`O/N=C1\CCCC\C1=N/O` was tested, and the T/C [1] was 125 % of control.
In the case of `CCn1cnc2c(=S)nc[nH]c21`, the survivor count (dose: 12.5 mg/kg/injection, schedule: Q#A X022 (ip), vehicle: carboxymethylcellulose (CMC)) was 6 of 10, the survivor count (dose: 50.0 mg/kg/injection, schedule: Q01DX011 (ip), vehicle: carboxymethylcellulose (CMC)) was 6 of 10 and the survivor count (dose: 50.0 mg/kg/injection, schedule: Q#A X022 (ip), vehicle: carboxymethylcellulose (CMC)) was 1 of 10. The survivor count (dose: 100.0 mg/kg/injection, schedule: Q01DX006 (iv), vehicle: carboxymethylcellulose (CMC)) was 6 of 10, the survivor count [2] was 1 of 10 and the survivor count (dose: 200.0 mg/kg/injection, schedule: Q01DX011 (im), vehicle: carboxymethylcellulose (CMC)) was 0 of 10. For the same compound, the survivor count (dose: 200.0 mg/kg/injection, schedule: Q01DX011 (oral), vehicle: carboxymethylcellulose (CMC)) was 0 of 10, the survivor count (dose: 400.0 mg/kg/injection, schedule: Q01DX011 (oral), vehicle: carboxymethylcellulose (CMC)) was 0 of 10 and the survivor count (dose: 600.0 mg/kg/injection, schedule: Q03DX004 (ip), vehicle: carboxymethylcellulose (CMC)) was 0 of 10. For the same compound, the survivor count (dose: 700.0 mg/kg/injection, schedule: Q07DX002 (ip), vehicle: carboxymethylcellulose (CMC)) was 1 of 10.
`C=CC1CN2CCC1CC2C(O)c1ccnc2ccc(OC)cc12` (stereo not given) was tested, and the T/C (dose: 115.85 mg/kg/injection, schedule: Q01DX011 (ip), vehicle: carboxymethylcellulose (CMC)) was 135 % of control and the survivor count (dose: 231.7 mg/kg/injection, schedule: Q01DX011 (ip), vehicle: carboxymethylcellulose (CMC)) was 2 of 10.
For `Nc1nc(=S)cc(Nc2ccc(Cl)c(Cl)c2)[nH]1`, the survivor count (dose: 62.0 mg/kg/injection, schedule: Q01DX011 (ip), vehicle: methylcellulose (MC)) was 6 of 10 and the survivor count (dose: 125.0 mg/kg/injection, schedule: Q01DX011 (ip), vehicle: methylcellulose (MC)) was 5 of 10.
For `CN(C)c1ccc(Nc2c3ccccc3nc3ccccc23)cc1`, the survivor count (dose: 140.0 mg/kg/injection, schedule: Q01DX011 (ip), vehicle: saline) was 2 of 10.
With `CC(C)n1cc2c(N)ncnc2n1` the survivor count (dose: 50.0 mg/kg/injection, schedule: Q01DX011 (ip), vehicle: saline) was 4 of 10.
With `O=C(CCBr)N1CCCN(C(=O)CCBr)CC1` the survivor count (dose: 113.0 mg/kg/injection, schedule: Q01DX011 (ip), vehicle: methylcellulose (MC)) was 4 of 10 and the survivor count (dose: 226.0 mg/kg/injection, schedule: Q01DX011 (ip), vehicle: methylcellulose (MC)) was 1 of 10.
With `CCOC(=O)C(Cc1ccc(N(CCCl)CCCl)cc1)NC=O` (stereo not given) the survivor count (dose: 320.0 mg/kg/injection, schedule: Q01DX011 (ip), vehicle: carboxymethylcellulose (CMC)) was 0 of 10.
`CN(C)c1nc(N)nc(Nc2ccc(Br)cc2)c1N=O` was tested, and the T/C [2] was 133 % of control, the survivor count [2] was 6 of 10 and the T/C [3] was 149 % of control. The survivor count [3] was 4 of 10, the T/C [4] was 140 % of control and the survivor count [4] was 6 of 10.
`Cn1c(=O)c2[nH]c(N/N=C/c3ccc(Br)cc3)nc2n(C)c1=O` was tested, and the survivor count (dose: 960.0 mg/kg/injection, schedule: Q01DX011 (ip), vehicle: carboxymethylcellulose (CMC)) was 2 of 10.
In the case of `C1OC1C1CO1` (stereo not given), the T/C (dose: 6.1 mg/kg/injection, schedule: Q01DX011 (ip), vehicle: carboxymethylcellulose (CMC)) was 128 % of control.
`CCCCCCCCCCCCCCCCC(C(=O)O)C(O)(CC(=O)O)C(=O)O` (stereo not given) was tested, and the survivor count [5] was 0 of 10.
In the case of `CCCCNS(=O)(=O)c1ncnc2nc[nH]c12`, the survivor count [3] was 0 of 10 and the survivor count [4] was 0 of 10.
In the case of `O=P(Oc1ccccc1)(OP(=O)(Oc1ccccc1)N(CCCl)CCCl)N(CCCl)CCCl` (stereo not given), the survivor count [1] was 6 of 10.
`Cc1cccc(N=Nc2c(S(=O)(=O)O)cc3cc(NC(=O)Nc4ccc5c(O)c(N=Nc6ccc7cc(S(=O)(=O)O)ccc7c6)c(S(=O)(=O)O)cc5c4)ccc3c2O)c1` was tested, and the survivor count (dose: 65.0 mg/kg/injection, schedule: Q01DX011 (ip), vehicle: carboxymethylcellulose (CMC)) was 6 of 10, the survivor count [2] was 2 of 10 and the survivor count [5] was 1 of 10.
With `OC1C(O)C(O)C2(CO2)C(O)C1O` (stereo not given) the survivor count (dose: 600.0 mg/kg/injection, schedule: Q01DX011 (ip), vehicle: saline) was 1 of 10.
With `Cn1c(N)nc2n[nH]nc2c1=O` the survivor count (dose: 500.0 mg/kg/injection, schedule: Q01DX011 (ip), vehicle: carboxymethylcellulose (CMC)) was 4 of 10.
For `c1ccc(N2CCSCC2)cc1`, the T/C [6] was 49, 60 [7 of 10 alive], 72 % of control, the survivor count [6] was 5 of 10 and the T/C [7] was 47, 49 [7 of 10 alive], 64 % of control [9 of 10 alive]. For the same compound, the survivor count [7] was 3 of 10 and the survivor count (dose: 27.0 mg/kg/injection, schedule: Q01DX011 (ip), vehicle: methylcellulose (MC)) was 4 of 10.
`Nc1nc(N)c2[nH]c(N=Nc3ccc(N(CCO)CCO)cc3)nc2n1` was tested, and the T/C (dose: 75.0 mg/kg/injection, schedule: Q01DX011 (ip), vehicle: saline) was 145 % of control [9 of 10 alive].
`CC(=O)OCC1OC(n2cnc3c(=O)[nH]cnc32)CC1OC(C)=O` (stereo not given) was tested, and the T/C [8] was 128 % of control.
With `O=c1[nH]cnc2nc(S(=O)(=O)F)[nH]c12` the T/C (dose: 30.0 mg/kg/injection, schedule: Q01DX011 (ip), vehicle: carboxymethylcellulose (CMC)) was 125 % of control.
`Cc1cc(C)c(/C=N/Nc2nc3c(c(=O)n(C)c(=O)n3C)n2C)c(C)c1` was tested, and the survivor count [8] was 6 of 10 and the survivor count (dose: 240.0 mg/kg/injection, schedule: Q01DX011 (ip), vehicle: carboxymethylcellulose (CMC)) was 3 of 10.
For `CCc1nc(N)nc(N)c1-c1ccc(Cl)cc1`, the T/C (dose: 5.93 mg/kg/injection, schedule: Q01DX011 (ip), vehicle: carboxymethylcellulose (CMC)) was 135 % of control, the T/C (dose: 12.5 mg/kg/injection, schedule: Q01DX011 (ip), vehicle: methylcellulose (MC)) was 126 % of control and the T/C (dose: 25.0 mg/kg/injection, schedule: Q01DX011 (ip), vehicle: methylcellulose (MC)) was 127 % of control. For the same compound, the survivor count (dose: 50.0 mg/kg/injection, schedule: Q01DX011 (ip), vehicle: methylcellulose (MC)) was 3 of 10 and the survivor count (dose: 100.0 mg/kg/injection, schedule: Q01DX011 (ip), vehicle: methylcellulose (MC)) was 2 of 10.
For `OCC1OC(n2cnc3c(Br)ncnc32)C(O)C1O` (stereo not given), the T/C (dose: 60.0 mg/kg/injection, schedule: Q01DX011 (ip), vehicle: carboxymethylcellulose (CMC)) was 125 % of control.
`OCCOCCN1CCN(CCCN2c3ccccc3Sc3ccc(C(F)(F)F)cc32)CC1` was tested, and the survivor count (dose: 5.0 mg/kg/injection, schedule: Q01DX011 (ip), vehicle: saline) was 2 of 10, the survivor count (dose: 10.0 mg/kg/injection, schedule: Q01DX011 (ip), vehicle: saline) was 1 of 10 and the survivor count (dose: 40.0 mg/kg/injection, schedule: Q01DX011 (ip), vehicle: saline) was 4 of 10.
